Experimental data as given in patent US20180215833A1 (published 2018).
Where a chain is given by its changes, count along the chain named. No constants are given. Whether binding was seen depends on the method and setting.

Sequences of proteins named here, by UniProt entry; tags and fusion partners are left off. Residues count along the entry.
UniProt P16056, residues 25-929: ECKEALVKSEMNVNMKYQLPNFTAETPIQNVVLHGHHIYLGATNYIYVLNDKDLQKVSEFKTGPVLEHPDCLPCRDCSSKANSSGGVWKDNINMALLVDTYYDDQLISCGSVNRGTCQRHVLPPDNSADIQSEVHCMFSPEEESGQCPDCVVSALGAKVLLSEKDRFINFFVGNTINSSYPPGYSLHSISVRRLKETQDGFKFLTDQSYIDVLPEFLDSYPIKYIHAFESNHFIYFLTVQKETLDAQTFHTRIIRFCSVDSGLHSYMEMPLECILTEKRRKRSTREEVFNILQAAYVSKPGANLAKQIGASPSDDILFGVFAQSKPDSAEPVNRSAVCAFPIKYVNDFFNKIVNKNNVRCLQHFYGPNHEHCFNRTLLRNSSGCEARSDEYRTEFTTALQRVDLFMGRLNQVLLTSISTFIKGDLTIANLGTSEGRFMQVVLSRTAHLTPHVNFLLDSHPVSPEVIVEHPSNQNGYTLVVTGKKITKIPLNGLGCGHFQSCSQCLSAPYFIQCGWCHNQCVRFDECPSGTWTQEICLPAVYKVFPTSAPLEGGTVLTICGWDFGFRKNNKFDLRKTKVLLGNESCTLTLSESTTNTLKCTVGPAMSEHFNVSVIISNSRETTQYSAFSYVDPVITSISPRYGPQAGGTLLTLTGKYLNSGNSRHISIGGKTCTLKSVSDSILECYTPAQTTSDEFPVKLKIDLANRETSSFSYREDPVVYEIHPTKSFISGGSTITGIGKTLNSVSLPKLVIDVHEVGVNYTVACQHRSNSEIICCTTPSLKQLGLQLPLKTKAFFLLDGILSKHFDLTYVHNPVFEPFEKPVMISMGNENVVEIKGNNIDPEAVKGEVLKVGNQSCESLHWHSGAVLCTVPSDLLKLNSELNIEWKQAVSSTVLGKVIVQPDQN

B1: 36C4 (antibody, V domains shown)
VH: QVQLVESGPGLVKPSQTLSLTCAVSGGSITTNYYYWSWIRQSPGKGLEWMGVIAYDGSTDYSPSLKSRTSISRDTSKNQFSLQLSSVTPEDTAVYYCARDVRVIATGWATANALDAWGQGTLVTVSS
VL: QSVLTQPPSVSGSPGKTVTISCAGTSSDVGYGNYVSWYQQLPGTAPKLLIFAVSYRASGIPDRFSGSKSGNTAFLTISGLQSEDEADYYCASYRSSNNAAVFGGGTHLTVL
notes: also called mAb 36C4; SIMPLE antibody 36C4
B2: 40B8 (antibody, V domains shown)
VH: EVQLVQPGAELRNPGASVKVSCKASGYTFTNYVIDWVRQAPGQGLEWMGRIDPENGGTRYAQKFQGRVTFTADTSTSTAYVELSNLRSEDTAVYYCARLEDYELAYDYWGQGTQVTVSS
VL: DIVMTQTPSSVTASAGEKVTINCKSSQSVLLSSNQKNYLAWYQQRLGQSPRLLIYWASTRESGVPDRFSGSGSTTDFTLTISSFQPEDAAVYYCQQGVSFPLTFGQGTKVELK
B3: 13E6 (antibody, V domains shown)
VH: QVQLQESGGDLVQPGGSLRLSCAASGFTFDDYVMNWVRQAPGKGLEWISAINWNGGSTYYAESMKGRFTISRDNAKNTLYLQMYSLQSDDTAVYYCVKDTVVSGNGYWGQGTQVTVSS
VL: QSVLTQPPSVSGTLGKTVTISCAGTSSDIGDYNYVSWYQQLPGTAPKLLIYDVNKRASGIPDRFSGSKSGNTASLSISGLQSEDEADYYCASYRSRNDYAFGGGTKLTVL
notes: also called mAb 13E6
B4: 12G4 (antibody, V domains shown)
VH: QLQLVESGGGMAQPGGSLKLSCAASGFTFDDYAMTWVRQAPGKGLEWLSTISWNDINTYYAESMKDRFTISRDNAKNTLYLQMNSLESEDTAVYYCAKRRDNYYGTSGEYDYWGQGTQVTVSS
VL: B3 VL with V3A, D31N, D52E, A57P, R96S, D98N, Y99V, A100V
B5: 20A11 (antibody, V domains shown)
VH: QVQLVESGGGLVQPGGSLRLSCAASGFTFDDYAMSWVRQAPGKGLEWVSAISWNGSSTYYAESMKGRFTISRDNAKNTLYLQMNSLKSEDTAVYYCAKDLIGSHDYWGQGTQVTVSS
VL: QAVLTQPPSVSGTLGKTLTISCAGTSSDVGYGNYVSWYQQLPGTAPKLLIYAVSTRASGIPDRFSGSKSGNTASLTISGLQSEDEADYYCASYRSSNNYAFGAGTKLTVL
B6: 38H10 (antibody, V domains shown)
VH: EVQLVQPGVELRNPGASVKVSCKASGYIFTMNSIDWVRQAPGQGLEWMGRIDPEDGGTKYAQKFQGRVTFTADTSTSTAYVELNSLRSEDTAVYYCARVDDYYLGYDYWGQGTQVTVSS
VL: EIVMTQSPSSVTASAGEKVTINCKSSQSVLWRSNQKNYLAWYQQRLGQSPRLLISWASIRESGVPDRFSGSGSTTDFTLTISSFQPEDAAVYYCQQGYSFPYTFGSGTRLEIK

What follows are binders tested against mouse c-Met (R&D systems cat no: 527-ME) (mouse) (UniProt P16056) (assay: ELISA, mAb immobilised (2 µg/ml), mouse c-Met added, anti-His detection).
For B1, the binding was “no binding (tested: 100 ng/ml mouse c-Met)”.
B2 was tested, and the binding was “no binding (tested: 100 ng/ml mouse c-Met)”.
With B3 the binding was “no binding (tested: 100 ng/ml mouse c-Met)”.
With B4 the binding was “no binding (tested: 100 ng/ml mouse c-Met)”.
B5 was tested, and the binding was “no binding (tested: 100 ng/ml mouse c-Met)”.
B6 was tested, and the binding was “no binding (tested: 100 ng/ml mouse c-Met)”.
